Laboratory results: the supplement of paper PMC10849652
This is one part of the list.

Sequences of proteins named here, by UniProt entry; tags and fusion partners are left off. A change or cut given only in a name is not applied to a line headed by its entry.
UniProt Q8IYU8: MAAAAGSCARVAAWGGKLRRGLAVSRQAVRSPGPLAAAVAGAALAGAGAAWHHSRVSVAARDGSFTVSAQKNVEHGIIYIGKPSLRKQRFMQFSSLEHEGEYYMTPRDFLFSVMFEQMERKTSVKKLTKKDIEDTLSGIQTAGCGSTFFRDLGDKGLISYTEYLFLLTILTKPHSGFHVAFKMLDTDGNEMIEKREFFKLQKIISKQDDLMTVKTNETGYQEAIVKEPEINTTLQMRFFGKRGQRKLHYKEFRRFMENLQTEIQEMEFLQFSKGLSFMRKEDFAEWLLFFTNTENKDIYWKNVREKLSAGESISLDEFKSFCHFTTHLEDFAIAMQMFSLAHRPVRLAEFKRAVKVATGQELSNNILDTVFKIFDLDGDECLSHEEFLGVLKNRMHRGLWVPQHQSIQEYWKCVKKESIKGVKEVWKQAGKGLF
UniProt Q5XKP0: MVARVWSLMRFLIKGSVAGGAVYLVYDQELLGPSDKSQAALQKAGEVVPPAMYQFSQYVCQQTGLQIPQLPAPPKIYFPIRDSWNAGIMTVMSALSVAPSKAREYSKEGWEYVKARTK
UniProt P14174: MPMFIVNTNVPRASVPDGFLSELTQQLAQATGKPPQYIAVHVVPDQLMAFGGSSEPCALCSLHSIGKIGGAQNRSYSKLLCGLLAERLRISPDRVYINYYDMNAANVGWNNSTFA
UniProt Q9H000: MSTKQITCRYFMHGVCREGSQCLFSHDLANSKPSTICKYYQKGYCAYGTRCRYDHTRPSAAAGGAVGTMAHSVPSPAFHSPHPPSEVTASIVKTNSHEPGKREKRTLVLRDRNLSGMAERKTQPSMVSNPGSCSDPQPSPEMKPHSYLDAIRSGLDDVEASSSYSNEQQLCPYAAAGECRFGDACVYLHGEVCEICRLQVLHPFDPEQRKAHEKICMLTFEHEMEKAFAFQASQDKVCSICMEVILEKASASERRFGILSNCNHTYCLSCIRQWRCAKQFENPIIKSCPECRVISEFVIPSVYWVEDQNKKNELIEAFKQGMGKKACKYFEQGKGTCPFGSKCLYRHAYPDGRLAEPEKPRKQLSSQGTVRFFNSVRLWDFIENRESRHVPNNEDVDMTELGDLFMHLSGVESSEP
UniProt Q7Z3U7: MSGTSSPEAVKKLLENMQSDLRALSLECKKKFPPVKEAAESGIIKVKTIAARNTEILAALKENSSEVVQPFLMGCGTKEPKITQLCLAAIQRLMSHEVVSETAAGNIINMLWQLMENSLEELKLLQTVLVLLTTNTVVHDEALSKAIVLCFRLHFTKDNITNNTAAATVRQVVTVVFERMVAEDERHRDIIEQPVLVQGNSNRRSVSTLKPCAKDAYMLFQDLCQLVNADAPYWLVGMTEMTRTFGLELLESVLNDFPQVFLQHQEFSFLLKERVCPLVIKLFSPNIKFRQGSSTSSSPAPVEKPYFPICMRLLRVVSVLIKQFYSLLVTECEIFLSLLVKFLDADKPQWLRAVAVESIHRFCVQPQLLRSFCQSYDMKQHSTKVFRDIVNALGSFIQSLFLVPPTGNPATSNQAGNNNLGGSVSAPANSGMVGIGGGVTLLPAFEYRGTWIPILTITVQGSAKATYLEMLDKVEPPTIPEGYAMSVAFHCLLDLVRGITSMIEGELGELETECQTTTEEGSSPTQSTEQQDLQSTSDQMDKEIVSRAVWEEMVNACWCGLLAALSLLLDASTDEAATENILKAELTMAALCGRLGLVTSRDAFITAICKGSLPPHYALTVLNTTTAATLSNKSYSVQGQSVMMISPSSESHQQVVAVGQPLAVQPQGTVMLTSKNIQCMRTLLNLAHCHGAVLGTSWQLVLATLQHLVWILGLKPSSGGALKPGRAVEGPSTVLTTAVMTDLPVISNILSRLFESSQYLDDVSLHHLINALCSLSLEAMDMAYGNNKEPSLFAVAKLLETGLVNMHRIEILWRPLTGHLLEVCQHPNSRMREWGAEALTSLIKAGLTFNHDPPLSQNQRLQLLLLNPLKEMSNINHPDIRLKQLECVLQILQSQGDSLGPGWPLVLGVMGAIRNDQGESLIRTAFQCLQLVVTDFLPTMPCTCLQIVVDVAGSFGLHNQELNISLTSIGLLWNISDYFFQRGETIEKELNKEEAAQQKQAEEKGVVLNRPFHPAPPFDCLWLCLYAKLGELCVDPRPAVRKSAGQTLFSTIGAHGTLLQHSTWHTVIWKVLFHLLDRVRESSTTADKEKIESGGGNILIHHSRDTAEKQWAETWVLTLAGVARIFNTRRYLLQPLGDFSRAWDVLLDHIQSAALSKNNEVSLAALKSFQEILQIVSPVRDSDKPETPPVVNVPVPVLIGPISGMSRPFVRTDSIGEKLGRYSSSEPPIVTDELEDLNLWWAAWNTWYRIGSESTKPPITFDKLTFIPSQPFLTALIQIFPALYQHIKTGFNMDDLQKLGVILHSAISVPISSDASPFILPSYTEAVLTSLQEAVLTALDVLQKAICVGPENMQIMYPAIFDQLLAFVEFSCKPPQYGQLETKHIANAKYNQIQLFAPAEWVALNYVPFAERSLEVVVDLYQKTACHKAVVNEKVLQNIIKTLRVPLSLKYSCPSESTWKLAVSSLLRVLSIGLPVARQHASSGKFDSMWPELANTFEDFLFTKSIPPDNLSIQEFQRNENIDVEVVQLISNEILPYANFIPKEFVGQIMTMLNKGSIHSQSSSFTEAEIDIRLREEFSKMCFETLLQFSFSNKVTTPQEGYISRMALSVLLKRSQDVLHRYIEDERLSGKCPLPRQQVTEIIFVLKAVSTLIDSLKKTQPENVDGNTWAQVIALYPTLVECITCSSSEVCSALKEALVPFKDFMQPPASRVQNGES
UniProt Q9NQG6: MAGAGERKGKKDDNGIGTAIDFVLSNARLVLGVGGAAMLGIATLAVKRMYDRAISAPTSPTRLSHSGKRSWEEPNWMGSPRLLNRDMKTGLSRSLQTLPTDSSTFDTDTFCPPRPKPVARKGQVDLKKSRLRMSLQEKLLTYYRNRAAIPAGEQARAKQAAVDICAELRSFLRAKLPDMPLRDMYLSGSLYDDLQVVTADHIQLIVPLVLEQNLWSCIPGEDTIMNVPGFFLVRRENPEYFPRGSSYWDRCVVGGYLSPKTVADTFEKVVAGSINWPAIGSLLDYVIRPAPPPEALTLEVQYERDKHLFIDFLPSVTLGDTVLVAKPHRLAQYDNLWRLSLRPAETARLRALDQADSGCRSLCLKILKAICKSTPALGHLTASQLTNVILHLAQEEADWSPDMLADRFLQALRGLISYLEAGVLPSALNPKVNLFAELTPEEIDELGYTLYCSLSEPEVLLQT
UniProt P51948: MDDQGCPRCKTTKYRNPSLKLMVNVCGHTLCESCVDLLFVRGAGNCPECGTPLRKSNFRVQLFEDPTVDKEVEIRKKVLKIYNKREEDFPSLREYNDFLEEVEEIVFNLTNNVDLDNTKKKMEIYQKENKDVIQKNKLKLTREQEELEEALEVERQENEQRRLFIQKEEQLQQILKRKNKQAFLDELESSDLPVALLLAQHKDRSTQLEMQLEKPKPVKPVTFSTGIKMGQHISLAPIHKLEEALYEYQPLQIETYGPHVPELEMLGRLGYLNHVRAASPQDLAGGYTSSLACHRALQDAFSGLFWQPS
UniProt Q9HCE1: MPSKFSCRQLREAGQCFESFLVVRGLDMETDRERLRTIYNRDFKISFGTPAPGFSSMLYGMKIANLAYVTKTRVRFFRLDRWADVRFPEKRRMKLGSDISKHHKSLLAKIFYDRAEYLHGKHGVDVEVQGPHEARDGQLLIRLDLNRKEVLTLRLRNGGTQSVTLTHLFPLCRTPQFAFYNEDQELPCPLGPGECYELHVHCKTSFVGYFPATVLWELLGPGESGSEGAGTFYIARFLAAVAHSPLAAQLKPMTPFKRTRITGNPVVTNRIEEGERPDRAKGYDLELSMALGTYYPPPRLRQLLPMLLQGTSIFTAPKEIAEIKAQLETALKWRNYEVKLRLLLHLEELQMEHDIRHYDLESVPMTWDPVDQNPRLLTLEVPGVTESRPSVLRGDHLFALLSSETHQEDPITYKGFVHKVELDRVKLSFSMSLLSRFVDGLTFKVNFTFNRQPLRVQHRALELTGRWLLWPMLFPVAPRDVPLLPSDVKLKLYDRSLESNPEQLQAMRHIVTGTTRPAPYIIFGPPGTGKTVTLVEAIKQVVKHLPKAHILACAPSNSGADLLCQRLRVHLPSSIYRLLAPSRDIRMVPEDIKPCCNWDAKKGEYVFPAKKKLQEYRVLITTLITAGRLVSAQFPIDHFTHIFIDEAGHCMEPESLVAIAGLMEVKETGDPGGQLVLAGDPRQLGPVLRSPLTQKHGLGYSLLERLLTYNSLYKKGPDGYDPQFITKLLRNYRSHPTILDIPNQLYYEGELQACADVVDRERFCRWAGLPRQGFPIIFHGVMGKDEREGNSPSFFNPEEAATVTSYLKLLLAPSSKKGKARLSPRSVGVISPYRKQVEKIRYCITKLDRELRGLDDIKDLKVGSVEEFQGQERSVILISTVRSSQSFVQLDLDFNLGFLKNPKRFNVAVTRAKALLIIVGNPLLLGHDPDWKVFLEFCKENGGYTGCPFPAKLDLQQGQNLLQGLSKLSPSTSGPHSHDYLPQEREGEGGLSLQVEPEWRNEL
UniProt Q7RTP6, whole entry, looked up: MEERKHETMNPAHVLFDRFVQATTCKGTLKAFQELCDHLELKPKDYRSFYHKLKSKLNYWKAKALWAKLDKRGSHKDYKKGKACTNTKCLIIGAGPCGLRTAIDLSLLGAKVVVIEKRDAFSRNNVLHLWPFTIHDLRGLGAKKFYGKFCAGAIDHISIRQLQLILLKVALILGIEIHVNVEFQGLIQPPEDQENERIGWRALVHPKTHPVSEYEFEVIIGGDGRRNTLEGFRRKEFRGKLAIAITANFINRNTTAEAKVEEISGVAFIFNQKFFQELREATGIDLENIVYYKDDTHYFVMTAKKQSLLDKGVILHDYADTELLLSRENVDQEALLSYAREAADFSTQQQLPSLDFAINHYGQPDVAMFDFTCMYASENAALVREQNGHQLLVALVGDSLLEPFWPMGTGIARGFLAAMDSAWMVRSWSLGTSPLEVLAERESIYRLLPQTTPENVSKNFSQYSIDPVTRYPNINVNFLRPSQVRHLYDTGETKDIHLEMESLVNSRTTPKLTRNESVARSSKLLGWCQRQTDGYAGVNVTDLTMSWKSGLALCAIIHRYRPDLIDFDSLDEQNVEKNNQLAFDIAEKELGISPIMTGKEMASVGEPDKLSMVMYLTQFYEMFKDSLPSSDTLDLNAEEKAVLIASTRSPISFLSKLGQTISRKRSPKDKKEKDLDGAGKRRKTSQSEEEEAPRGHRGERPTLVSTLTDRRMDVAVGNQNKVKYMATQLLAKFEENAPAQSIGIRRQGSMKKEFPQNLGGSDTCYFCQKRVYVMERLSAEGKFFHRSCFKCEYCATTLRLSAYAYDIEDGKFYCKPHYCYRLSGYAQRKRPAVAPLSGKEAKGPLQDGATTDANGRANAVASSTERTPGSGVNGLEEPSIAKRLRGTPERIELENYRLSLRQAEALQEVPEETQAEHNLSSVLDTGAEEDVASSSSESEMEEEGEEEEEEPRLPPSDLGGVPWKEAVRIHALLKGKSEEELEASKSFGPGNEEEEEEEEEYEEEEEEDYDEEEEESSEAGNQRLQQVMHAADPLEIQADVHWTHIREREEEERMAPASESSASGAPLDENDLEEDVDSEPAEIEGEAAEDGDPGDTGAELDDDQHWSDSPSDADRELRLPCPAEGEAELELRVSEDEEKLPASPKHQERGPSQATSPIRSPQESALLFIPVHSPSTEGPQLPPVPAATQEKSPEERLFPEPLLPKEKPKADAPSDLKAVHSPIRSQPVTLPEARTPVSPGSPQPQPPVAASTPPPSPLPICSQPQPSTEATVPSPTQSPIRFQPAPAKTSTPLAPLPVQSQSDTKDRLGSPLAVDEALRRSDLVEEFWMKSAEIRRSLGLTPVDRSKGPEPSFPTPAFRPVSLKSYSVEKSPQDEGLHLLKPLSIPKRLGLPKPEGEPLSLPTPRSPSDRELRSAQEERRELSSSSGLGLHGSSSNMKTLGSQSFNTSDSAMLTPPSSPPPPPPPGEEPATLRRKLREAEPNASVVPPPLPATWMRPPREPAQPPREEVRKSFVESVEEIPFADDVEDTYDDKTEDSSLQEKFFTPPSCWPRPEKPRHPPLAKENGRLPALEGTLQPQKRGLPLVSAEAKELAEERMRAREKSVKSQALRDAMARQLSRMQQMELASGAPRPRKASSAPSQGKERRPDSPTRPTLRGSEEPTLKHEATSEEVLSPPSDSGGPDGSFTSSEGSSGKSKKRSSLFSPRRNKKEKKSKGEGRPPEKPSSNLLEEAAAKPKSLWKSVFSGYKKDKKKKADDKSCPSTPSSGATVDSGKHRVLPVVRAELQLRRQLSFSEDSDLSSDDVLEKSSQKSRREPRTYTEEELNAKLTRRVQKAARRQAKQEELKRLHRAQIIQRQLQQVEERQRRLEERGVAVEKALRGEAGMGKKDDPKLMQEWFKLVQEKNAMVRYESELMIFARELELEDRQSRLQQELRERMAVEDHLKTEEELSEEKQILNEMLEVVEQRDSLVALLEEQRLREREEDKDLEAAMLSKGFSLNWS

compound: C=CC(=O)N1CCC[C@@H](n2nc(-c3ccc(Oc4ccccc4)cc3)c3c(N)ncnc32)C1 [ibrutinib]; assay: log2 fold change, soluble protein after heating vs DMSO (PISA); higher = thermal stabilisation; K562 cells, 10 uM, 30 min; active = over 0.2 and 3.5 SD of the protein, either way, in both replicates (recomputed)
Procedure, shortened: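 K562 cells (2×10^6 cells/mL) were treated with 10 μM compound for 30 min, and aliquots were heated for 3 min over 48°C-58°C. Pooled aliquots were extracted in PBS with 0.5% NP-40 at 4°C, and the supernatant after 21,000xg for 90 min was measured by TMTpro 16plex LC-MS/MS with channel sums equalised. Reported thermal stability, relative to control samples and from duplicates, is a log2 fold change.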

log2 fold change, inactive:
MPP1 (UniProt Q00013) -0.047
MICU2 (UniProt Q8IYU8) -0.001
MICOS13 (UniProt Q5XKP0) -0.012
MIER1 isoform 12 (UniProt Q8N108) -0.012
MPHOSPH10 (UniProt O00566) -0.022
MOCS3 (UniProt O95396) 0.029
MINK1 (UniProt Q8N4C8) 0.038
MIF (UniProt P14174) 0.039
MPDU1 (UniProt O75352) -0.021
MORC3 (UniProt Q14149) -0.047
MKRN2 (UniProt Q9H000) 0.026
MRPL46 (UniProt Q9H2W6) -0.012
MIEN1 (UniProt Q9BRT3) -0.029
MRPL47 (UniProt Q9HD33) 0.022
MON2 isoform 5 (UniProt Q7Z3U7) -0.036
MRPL34 (UniProt Q9BQ48) 0.107
MRPL55 isoform 2 (UniProt Q7Z7F7) -0.107
MLX (UniProt Q9UH92) -0.058
MRPL39 (UniProt Q9NYK5) 0.019
MRPL50 (UniProt Q8N5N7) 0.052
MITD1 (UniProt Q8WV92) 0.03
MIEF1 (UniProt Q9NQG6) -0.003
MICU1 isoform 3 (UniProt Q9BPX6) -0.009
MON1B (UniProt Q7L1V2) 0.037
MPV17 (UniProt P39210) -0.023
MIS12 (UniProt Q9H081) 0.026
MND1 (UniProt Q9BWT6) 0.069
MIS18A (UniProt Q9NYP9) 0.003
MLST8 (UniProt Q9BVC4) -0.048
MNAT1 (UniProt P51948) 0.03
MORF4L2 (UniProt Q15014) 0.04
MIEF1 (UniProt L0R8F8) 0.065
MKNK1 (UniProt Q9BUB5) -0.034
MOV10 (UniProt Q9HCE1) 0.002
MRPL57 (UniProt Q9BQC6) -0.057
MMS19 isoform 8 (UniProt Q96T76) -0.029
MPRIP isoform 2 (UniProt Q6WCQ1) -0.068
MICAL3 (UniProt Q7RTP6) -0.013

Quoted at random: 2 records from the list
log2 fold change, inactive:
MITD1 (UniProt Q8WV92) 0.03
MIS18A (UniProt Q9NYP9) 0.003
